Source: article PMC3983244

B1: E. coli FtsZ (wild type) [E. coli] / ClpX(E185Q) [E. coli] (parent)
chain 1: MTDKRKDGSGKLLYCSFCGKSQHEVRKLIAGPSVYICDECVDLCNDIIREEIKEVAPHRERSALPTPHEIRNHLDDYVIGQEQAKKVLAVAVYNHYKRLRNGDTSNGVELGKSNILLIGPTGSGKTLLAETLARLLDVPFTMADATTLTEAGYVGEDVENIIQKLLQKCDYDVQKAQRGIVYIDQIDKISRKSDNPSITRDVSGEGVQQALLKLIEGTVAAVPPQGGRKHPQQEFLQVDTSKILFICGGAFAGLDKVISHRVETGSGIGFGATVKAKSDKASEGELLAQVEPEDLIKFGLIPEFIGRLPVVATLNELSEEALIQILKEPKNALTKQYQALFNLEGVDLEFRDEALDAIAKKAMARKTGARGLRSIVEAALLDTMYDLPSMEDVEKVVIDESVIDGQSKPLLIYGKPEAQQASGE
chain 2: MFEPMELTNDAVIKVIGVGGGGGNAVEHMVRERIEGVEFFAVNTDAQALRKTAVGQTIQIGSGITKGLGAGANPEVGRNAADEDRDALRAALEGADMVFIAAGMGGGTGTGAAPVVAEVAKDLGILTVAVVTKPFNFEGKKRMAFAEQGITELSKHVDSLITIPNDKLLKVLGRGISLLDAFGAANDVLKGAVQGIAELITRPGLMNVDFADVRTVMSEMGYAMMGSGVASGEDRAEEAAEMAISSPLLEDIDLSGARGVLVNITAGFDLRLDEFETVGNTIRAFASDNATVVIGTSLDPDMNDELRVTVVATGIGMDKRPEITLVTNKQVQQPVMDRYQQHGMAPLTQEQKPVAKVVNDNAPQTAKEPDYLDIPAFLRKQAD

Variants of: B1
Assay: co-pelleting assay (Coomassie-stained SDS-PAGE, densitometry)
Settings: with ClpX(E185Q) [E. coli]; 1.5 pmol ClpX(E185Q); in the presence of GTP; parent: 6.5; read off a plot
With chain 2 K356A V357A V358A the response (fmol ClpX(E185Q) / pmol FtsZ) was 1.8.

Same assay, conditions: with ClpX(E185Q) [E. coli]; 5 pmol ClpX(E185Q); in the presence of GTP; parent: 22; read off a plot
chain 2 K356A V357A V358A showed a response (fmol ClpX(E185Q) / pmol FtsZ) of 24.

Same assay, conditions: with ClpX(E185Q) [E. coli]; 12.5 pmol ClpX(E185Q); in the presence of GTP; parent: 47; read off a plot
chain 2 K356A V357A V358A showed a response (fmol ClpX(E185Q) / pmol FtsZ) of 50.
